Experimental findings from the supplement of paper PMC12462457 are described below.

± gives the standard deviation of the averaged measurements. Some of the results follow. Repeats in this data set agree poorly, so a single value says little.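 Cells were counted by imaging DAPI-stained nuclei, and cells lacking phalloidin-stained cytoplasm were excluded as dead. Each well's count was divided by the median count of the vehicle wells on the same plate, and values were averaged over two replicate plates.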

The subject of the assay is OVCAR8. The assay can be described thus: cell count relative to DMSO vehicle (fold change); higher = more surviving senescent cells (less killing). The conditions noted are these: senescence inducer: cisplatin 10 µM 48 h, then 6 d recovery (CP senescent), exposure time 24 h.

For the compound `O=C1NC(=O)C(c2ccccc2[N+](=O)[O-])=C1Nc1ccc(O)c(Cl)c1`, the cell count runs as follows: (compound dose 1 µM) 1.06 ± 0.15; (compound dose 5 µM) 0.817 ± 0.15.
In the case of `C[N+](C)(C)CCOP(=O)(O)OP(=O)([O-])OC[C@H]1O[C@@H](n2ccc(N)nc2=O)[C@H](O)[C@@H]1O`, the cell count is 1.18 ± 0.09 (compound dose 1 µM) and 1.27 ± 0.018 (compound dose 5 µM).
As to `CC1(C)C[C@@H](O)[C@]2(C)CC[C@]3(C)C(=CC[C@@H]4[C@@]5(C)CC[C@H](O)[C@](C)(CO)[C@@H]5CC[C@]43C)[C@@H]2C1` [Soyasapogenol B], the cell count was 0.767 ± 0.013 (compound dose 1 µM) and 0.667 ± 0.24 (compound dose 5 µM).
For the compound `C[C@@H]1O[C@@H](O[C@H]2[C@H](O[C@H]3[C@H](O[C@H]4CC[C@]5(C)[C@H]6CC=C7[C@@H]8CC(C)(C)CC[C@]8(C(=O)O)CC[C@@]7(C)[C@]6(C)CC[C@H]5C4(C)C)OC[C@H](O)[C@@H]3O)O[C@H](CO)[C@@H](O)[C@@H]2O)[C@H](O)[C@H](O)[C@H]1O` [Raddeanin A], the cell count is, setting by setting: (compound dose 1 µM) 1.04 ± 0.14; (compound dose 5 µM) 0.072 ± 0.05.
For `CCCCCN(C)CCC(O)(P(=O)(O)O)P(=O)(O)O`, in that order: 0.995 ± 0.18 and 0.901 ± 0.12.
The like results for `CCS(=O)(=O)Nc1ccc(Oc2ccc(F)cc2F)c(-c2cn(C)c(=O)c3[nH]ccc23)c1` [Mivebresib] were, in that order, 0.454 ± 0.0071 and 0.191 ± 0.036.
The like results for `O=c1ccc2cc3ccoc3cc2o1` [Psoralen] were, in that order, 1.01 ± 0.19 and 0.717 ± 0.12.
As for `Oc1ccc2c(c1)OC[C@]1(O)Cc3cc(O)c(O)cc3[C@H]21` [Brazilin], the cell count was 0.84 ± 0.073 (compound dose 1 µM) and 0.627 ± 0.14 (compound dose 5 µM).
The like results for `C=C(C)[C@@H]1CC[C@]2(C(=O)O)CC[C@]3(C)[C@H](CC[C@@H]4[C@@]5(C)CC[C@H](O)C(C)(C)[C@@H]5CC[C@]43C)[C@@H]12` [Betulinic acid] were, in that order, 1.21 ± 0.03 and 1.12 ± 0.095.
Consider `Nc1nc(F)nc2c1ncn2[C@@H]1O[C@H](COP(=O)(O)O)[C@@H](O)[C@@H]1O` [Fludarabine (phosphate)], for which the cell count reads like this: (compound dose 1 µM) 1.39 ± 0.23; (compound dose 5 µM) 1.24 ± 0.27.
For `O=C(NOCC1CC1)c1ccc(F)c(F)c1Nc1ccc(I)cc1Cl`, in that order: 1.2 ± 0.086 and 0.615 ± 0.053.
For `COc1cc(O)c2c(=O)cc(-c3ccc(OC)c(-c4c(O)cc(O)c5c(=O)cc(-c6ccc(O)cc6)oc45)c3)oc2c1` [Ginkgetin], in that order: 0.775 ± 0.043 and 0.773 ± 0.083.
As to `CC1(C)CCC(c2ccc(Cl)cc2)=C(CN2CCN(c3ccc(C(=O)NS(=O)(=O)c4ccc(N[C@H](CCN5CCOCC5)CSc5ccccc5)c(S(=O)(=O)C(F)(F)F)c4)cc3)CC2)C1` [Navitoclax], the cell count was 0.173 ± 0.0042 (compound dose 1 µM) and 0.0375 ± 0.013 (compound dose 5 µM).
`CC(C)C[C@H](NC(=O)[C@H](Cc1ccccc1)NC(=O)c1cnccn1)B(O)O` [Bortezomib]: the cell count was found to be 0.425 ± 0.0028 (compound dose 1 µM) and 0.125 ± 0.011 (compound dose 5 µM).
The like results for `COc1ccc(-c2coc3cc(O)ccc3c2=O)cc1` were, in that order, 0.842 ± 0.0028 and 0.656 ± 0.086.
Regarding `COc1ncc(-c2nc3c(n2C(C)C)[C@H](c2ccc(Cl)cc2)N(c2cc(Cl)cn(C)c2=O)C3=O)c(OC)n1` [Siremadlin], the cell count (compound dose 1 µM) was 0.838 ± 0.019 and the cell count (compound dose 5 µM) was determined as 0.588 ± 0.25.
The like results for `CCCCc1ccc(NC(C)=O)c(C)c1` were, in that order, 0.989 ± 0.22 and 0.976 ± 0.034.
Compound `O=C1NC(=O)/C(=C\c2cccc(C(F)(F)F)c2)S1` showed a cell count (compound dose 1 µM) of 1.02 ± 0.29 and a cell count (compound dose 5 µM) of 0.904 ± 0.076.
As to `O=C1/C(=C/c2cccs2)CC/C1=C\c1cccs1`, the cell count by setting is: (compound dose 1 µM) 1.14 ± 0.046; (compound dose 5 µM) 0.885 ± 0.21.
The like results for `CCCSc1ccc2[nH]c(NC(=O)OC)nc2c1` were, in that order, 0.938 ± 0.18 and 0.8205 ± 0.005.
Consider `CCc1ccc(CCOc2ccc(CC3SC(=O)NC3=O)cc2)nc1` (stereo unspecified), for which the cell count (compound dose 1 µM) is 1.09 ± 0.12 and the cell count (compound dose 5 µM) was 0.996 ± 0.31.
As to `O=C(CCCCCCC(=O)Nc1cccnc1)NO` [Pyroxamide], the cell count reads like this: (compound dose 1 µM) 0.909 ± 0.023; (compound dose 5 µM) 0.562 ± 0.14.
The like results for `CN(C)c1nc2c(Br)c(Br)c(Br)c(Br)c2n1CC(=O)O` were, in that order, 1.24 ± 0.17 and 1.19 ± 0.35.
With `CCC(C)(C)C(=O)C(=O)N1CCCC[C@H]1C(=O)O[C@H](CCc1ccc(OC)c(OC)c1)c1cccc(NC(=O)CCC(=O)O)c1` [SLF-amido-C2-COOH], the cell count (compound dose 1 µM) came to 0.857 ± 0.033 and the cell count (compound dose 5 µM) is 0.628 ± 0.04.
The like results for `O=C(O)CCc1nc(-c2ccccc2)c(-c2ccccc2)o1` were, in that order, 1.22 ± 0.15 and 1.25 ± 0.18.
For `CN(CCCCCCNc1ccnc2cc(Cl)ccc12)CCCCCCNc1ccnc2cc(Cl)ccc12`, in that order: 1.04 ± 0.19 and 0.017 ± 0.0014.
The like results for `COc1ccc([C@@H]2CC(=O)c3c(O)cc(O)cc3O2)cc1O` [Hesperetin] were, in that order, 1.17 ± 0.35 and 1.16 ± 0.44.
As for `O=c1cc(-c2ccccc2)oc2c(O)c(O)ccc12`, the cell count by setting is: (compound dose 1 µM) 1.07 ± 0.2; (compound dose 5 µM) 1.27 ± 0.16.
The like results for `COc1cc(C(=O)OCCCCN=C(N)N)cc(OC)c1O[C@@H]1O[C@H](C(=O)O)[C@@H](O)[C@H](O)[C@H]1O` were, in that order, 1.08 ± 0.076 and 1.25 ± 0.12.
For `Cc1c(C(=O)Nc2ccc(Oc3ccnc4[nH]cc(-c5ccccc5)c34)c(F)c2)c(=O)n(-c2ccc(F)cc2)n1C`, in that order: 0.862 ± 0.15 and 1.04 ± 0.03.
On to `CN[C@@H](C)C(=O)N[C@H](C(=O)N1CCC[C@H]1c1nc(C(=O)c2ccc(F)cc2)cs1)C1CCCCC1`, for which the cell count turned out to be 0.355 ± 0.084 (compound dose 1 µM) and 0.248 ± 0.024 (compound dose 5 µM).
In the case of `C=Cc1cc(O)cc2nc(-c3ccc(O)c(F)c3)oc12` [Prinaberel], the cell count runs as follows: (compound dose 1 µM) 1.06 ± 0.19; (compound dose 5 µM) 1.08 ± 0.012.
For `COc1ccc(-c2ccc3c(N4CCOC[C@@H]4C)nc(N4CCOC[C@@H]4C)nc3n2)cc1CO`, in that order: 0.727 ± 0.033 and 0.428 ± 0.033.
